This is one part of the list. Small differences around the control level are noise.
compound: Cc1nc(Nc2ncc(C(=O)Nc3c(C)cccc3Cl)s2)cc(N2CCN(CCO)CC2)n1 [dasatinib]; experiment: log2 fold change of tryptic peptide abundance, ligand vs vehicle (limited proteolysis) (log2 ratio); higher = more trypsin-susceptible (destabilized); details: ligand concentration: 5 uM; sample: K562 cleared lysate

By UniProt entry, the sequences of proteins in these tests, tags left out. Where a name states a change or a piece, a line headed by the entry shows the natural chain unless it says otherwise.
UniProt Q9BT92: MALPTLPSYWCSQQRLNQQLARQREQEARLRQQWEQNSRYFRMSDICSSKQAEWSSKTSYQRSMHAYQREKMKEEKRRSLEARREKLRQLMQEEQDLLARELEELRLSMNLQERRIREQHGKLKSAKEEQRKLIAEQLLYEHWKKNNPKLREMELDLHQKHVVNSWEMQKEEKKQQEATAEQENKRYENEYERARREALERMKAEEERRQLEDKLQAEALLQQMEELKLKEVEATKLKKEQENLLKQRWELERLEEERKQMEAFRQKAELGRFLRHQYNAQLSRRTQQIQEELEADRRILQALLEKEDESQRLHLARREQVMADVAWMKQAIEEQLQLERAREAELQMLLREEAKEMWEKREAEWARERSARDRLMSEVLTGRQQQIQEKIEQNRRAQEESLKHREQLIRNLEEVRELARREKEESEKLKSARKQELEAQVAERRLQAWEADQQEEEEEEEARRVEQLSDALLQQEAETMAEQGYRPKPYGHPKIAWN
UniProt Q96T66: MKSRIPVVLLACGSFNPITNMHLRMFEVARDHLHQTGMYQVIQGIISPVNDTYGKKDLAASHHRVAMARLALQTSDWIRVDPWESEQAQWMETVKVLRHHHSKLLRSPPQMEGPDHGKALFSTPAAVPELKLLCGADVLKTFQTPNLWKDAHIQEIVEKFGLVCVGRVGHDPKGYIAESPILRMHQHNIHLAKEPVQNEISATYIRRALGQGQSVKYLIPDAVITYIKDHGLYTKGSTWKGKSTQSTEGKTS
UniProt Q99590: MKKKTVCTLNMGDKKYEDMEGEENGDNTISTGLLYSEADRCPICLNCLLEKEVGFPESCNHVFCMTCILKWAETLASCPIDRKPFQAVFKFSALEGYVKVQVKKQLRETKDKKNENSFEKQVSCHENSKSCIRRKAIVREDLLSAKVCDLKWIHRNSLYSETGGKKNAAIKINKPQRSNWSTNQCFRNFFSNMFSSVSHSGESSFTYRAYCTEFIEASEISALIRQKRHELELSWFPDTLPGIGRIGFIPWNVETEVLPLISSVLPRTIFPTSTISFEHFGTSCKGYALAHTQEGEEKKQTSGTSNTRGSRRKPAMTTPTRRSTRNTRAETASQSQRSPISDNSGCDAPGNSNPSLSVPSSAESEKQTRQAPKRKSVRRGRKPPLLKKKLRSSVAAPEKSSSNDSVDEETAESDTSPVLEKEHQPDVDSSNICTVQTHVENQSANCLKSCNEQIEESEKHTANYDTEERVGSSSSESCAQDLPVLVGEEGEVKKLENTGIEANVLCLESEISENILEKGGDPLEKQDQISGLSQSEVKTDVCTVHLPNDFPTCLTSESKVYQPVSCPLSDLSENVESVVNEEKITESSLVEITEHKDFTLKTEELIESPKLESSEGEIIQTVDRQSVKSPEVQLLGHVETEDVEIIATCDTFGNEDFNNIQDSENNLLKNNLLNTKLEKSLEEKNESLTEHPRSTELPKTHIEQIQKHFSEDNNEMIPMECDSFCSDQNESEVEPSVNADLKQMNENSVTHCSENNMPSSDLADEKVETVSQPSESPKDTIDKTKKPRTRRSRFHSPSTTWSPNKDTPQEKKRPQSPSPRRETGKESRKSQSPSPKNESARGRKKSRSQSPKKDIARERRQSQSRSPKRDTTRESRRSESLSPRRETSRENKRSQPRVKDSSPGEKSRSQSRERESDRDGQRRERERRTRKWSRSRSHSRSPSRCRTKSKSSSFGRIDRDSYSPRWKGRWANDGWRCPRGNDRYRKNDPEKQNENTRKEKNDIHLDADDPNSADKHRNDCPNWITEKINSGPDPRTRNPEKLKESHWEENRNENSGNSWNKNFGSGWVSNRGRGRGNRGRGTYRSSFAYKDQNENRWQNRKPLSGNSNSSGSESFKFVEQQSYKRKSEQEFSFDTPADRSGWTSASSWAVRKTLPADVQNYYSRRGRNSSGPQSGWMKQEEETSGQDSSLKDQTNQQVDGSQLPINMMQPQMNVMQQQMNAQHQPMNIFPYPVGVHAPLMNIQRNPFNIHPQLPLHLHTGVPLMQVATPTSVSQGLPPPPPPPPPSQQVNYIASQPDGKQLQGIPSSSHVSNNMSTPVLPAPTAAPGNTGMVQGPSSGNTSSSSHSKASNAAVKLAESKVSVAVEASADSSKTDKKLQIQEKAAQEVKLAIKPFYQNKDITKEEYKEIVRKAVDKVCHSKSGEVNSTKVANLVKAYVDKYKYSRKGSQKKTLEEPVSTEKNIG
UniProt Q9BRT3: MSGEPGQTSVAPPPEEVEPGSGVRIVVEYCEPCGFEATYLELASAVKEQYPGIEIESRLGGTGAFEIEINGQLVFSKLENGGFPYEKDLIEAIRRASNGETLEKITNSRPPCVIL
UniProt Q9BU20: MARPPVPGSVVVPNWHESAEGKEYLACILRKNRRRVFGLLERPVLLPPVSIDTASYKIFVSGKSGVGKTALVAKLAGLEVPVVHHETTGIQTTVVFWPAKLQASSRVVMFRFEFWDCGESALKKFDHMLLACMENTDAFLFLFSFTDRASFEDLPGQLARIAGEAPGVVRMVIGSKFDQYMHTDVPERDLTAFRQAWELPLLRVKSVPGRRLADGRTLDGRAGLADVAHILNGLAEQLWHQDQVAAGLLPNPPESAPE
UniProt Q99504: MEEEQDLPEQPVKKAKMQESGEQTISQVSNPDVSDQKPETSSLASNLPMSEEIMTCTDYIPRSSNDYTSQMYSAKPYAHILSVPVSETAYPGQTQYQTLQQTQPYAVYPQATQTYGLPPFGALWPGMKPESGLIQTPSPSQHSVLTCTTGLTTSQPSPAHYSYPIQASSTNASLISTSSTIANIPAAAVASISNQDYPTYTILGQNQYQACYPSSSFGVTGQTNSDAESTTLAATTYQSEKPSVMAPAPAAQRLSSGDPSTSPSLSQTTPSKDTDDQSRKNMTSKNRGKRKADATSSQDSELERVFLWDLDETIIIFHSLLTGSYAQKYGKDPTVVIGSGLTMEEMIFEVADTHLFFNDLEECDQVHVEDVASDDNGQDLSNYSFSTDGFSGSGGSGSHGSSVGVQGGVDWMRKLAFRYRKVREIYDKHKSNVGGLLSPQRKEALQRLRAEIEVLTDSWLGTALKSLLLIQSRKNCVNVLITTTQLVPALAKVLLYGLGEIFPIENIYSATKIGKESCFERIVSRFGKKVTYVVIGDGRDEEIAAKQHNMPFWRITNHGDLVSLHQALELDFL
UniProt Q99622: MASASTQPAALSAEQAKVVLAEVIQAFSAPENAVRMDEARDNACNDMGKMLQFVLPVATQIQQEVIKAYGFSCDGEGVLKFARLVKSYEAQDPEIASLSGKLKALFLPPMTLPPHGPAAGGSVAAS
UniProt Q99829: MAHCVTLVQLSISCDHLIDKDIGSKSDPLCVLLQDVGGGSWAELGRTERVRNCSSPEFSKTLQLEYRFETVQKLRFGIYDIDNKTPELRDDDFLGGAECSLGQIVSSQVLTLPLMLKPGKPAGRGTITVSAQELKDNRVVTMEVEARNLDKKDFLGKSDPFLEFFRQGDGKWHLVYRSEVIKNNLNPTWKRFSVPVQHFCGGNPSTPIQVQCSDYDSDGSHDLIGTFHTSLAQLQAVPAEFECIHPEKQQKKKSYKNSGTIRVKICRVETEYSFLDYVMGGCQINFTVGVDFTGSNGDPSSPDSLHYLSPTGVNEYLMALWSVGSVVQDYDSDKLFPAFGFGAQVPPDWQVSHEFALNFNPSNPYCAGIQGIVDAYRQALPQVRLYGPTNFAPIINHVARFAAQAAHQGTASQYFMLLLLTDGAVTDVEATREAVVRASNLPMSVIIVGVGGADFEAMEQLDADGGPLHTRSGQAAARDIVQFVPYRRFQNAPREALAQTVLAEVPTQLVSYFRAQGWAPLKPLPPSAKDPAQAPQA
UniProt Q9BR61: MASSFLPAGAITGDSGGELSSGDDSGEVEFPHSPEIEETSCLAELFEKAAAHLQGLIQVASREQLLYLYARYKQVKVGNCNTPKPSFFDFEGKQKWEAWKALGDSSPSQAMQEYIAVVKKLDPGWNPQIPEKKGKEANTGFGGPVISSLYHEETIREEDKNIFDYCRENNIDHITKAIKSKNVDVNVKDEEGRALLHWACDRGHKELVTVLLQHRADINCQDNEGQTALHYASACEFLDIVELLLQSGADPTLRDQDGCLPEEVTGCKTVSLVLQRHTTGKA
UniProt Q99942: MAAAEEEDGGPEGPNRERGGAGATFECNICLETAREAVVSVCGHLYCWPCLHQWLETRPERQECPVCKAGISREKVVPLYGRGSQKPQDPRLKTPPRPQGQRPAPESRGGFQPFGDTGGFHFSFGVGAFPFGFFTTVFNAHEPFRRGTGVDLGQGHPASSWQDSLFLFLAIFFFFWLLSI
UniProt Q9BQG2: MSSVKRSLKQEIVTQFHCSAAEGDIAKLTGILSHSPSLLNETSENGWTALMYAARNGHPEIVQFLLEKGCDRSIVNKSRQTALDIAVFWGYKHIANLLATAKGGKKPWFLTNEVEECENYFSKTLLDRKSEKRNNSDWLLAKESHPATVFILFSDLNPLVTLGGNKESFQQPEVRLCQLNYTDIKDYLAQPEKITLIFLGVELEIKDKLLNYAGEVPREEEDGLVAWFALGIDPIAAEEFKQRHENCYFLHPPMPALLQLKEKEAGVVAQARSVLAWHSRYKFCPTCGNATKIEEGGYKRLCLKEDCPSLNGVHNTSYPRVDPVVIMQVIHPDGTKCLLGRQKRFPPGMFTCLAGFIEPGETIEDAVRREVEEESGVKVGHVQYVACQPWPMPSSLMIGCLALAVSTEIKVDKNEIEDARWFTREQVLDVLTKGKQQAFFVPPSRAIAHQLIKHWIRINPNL
UniProt Q96T21: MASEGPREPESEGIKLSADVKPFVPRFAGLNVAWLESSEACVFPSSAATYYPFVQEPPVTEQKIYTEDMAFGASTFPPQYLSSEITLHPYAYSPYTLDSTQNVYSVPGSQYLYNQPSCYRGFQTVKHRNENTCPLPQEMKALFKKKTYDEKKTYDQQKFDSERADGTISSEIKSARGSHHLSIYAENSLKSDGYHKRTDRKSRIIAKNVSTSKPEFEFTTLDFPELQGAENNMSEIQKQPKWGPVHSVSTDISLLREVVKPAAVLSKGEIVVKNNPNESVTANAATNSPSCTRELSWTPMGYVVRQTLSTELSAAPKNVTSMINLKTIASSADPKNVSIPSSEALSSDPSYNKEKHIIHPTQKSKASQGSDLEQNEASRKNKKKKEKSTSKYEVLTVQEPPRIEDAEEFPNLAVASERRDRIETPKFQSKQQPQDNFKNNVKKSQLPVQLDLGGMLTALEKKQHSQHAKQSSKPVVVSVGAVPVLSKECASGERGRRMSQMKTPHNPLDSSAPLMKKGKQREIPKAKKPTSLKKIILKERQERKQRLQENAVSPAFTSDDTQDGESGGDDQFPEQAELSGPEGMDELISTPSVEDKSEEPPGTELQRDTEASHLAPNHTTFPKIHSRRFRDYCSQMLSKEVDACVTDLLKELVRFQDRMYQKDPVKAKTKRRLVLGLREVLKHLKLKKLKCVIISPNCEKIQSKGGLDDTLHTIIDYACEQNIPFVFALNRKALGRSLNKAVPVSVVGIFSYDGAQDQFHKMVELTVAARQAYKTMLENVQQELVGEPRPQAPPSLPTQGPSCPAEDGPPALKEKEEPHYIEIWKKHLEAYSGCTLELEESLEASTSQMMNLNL
UniProt Q9BUN5: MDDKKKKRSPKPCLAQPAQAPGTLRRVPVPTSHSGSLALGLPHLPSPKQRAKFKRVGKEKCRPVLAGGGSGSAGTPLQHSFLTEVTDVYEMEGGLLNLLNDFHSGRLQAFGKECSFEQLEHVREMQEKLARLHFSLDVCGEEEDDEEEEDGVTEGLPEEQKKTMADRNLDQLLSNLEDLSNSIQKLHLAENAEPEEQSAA
UniProt Q99547: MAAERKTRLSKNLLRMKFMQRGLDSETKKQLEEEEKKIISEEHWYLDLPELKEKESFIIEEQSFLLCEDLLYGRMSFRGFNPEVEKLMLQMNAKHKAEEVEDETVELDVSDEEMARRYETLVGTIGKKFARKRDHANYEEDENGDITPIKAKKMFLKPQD
UniProt Q9BTY2: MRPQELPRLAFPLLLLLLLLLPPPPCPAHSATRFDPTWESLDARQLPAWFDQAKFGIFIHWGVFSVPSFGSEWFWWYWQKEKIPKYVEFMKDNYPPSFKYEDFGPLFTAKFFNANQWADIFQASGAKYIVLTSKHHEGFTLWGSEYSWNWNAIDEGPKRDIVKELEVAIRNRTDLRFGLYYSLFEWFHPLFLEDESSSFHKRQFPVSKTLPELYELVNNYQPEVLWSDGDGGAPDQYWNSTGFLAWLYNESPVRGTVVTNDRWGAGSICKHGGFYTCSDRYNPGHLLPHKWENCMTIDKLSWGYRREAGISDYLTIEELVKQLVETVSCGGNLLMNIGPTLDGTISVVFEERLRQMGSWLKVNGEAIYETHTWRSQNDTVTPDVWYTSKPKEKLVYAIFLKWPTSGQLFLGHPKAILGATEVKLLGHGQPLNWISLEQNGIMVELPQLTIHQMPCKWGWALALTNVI

| Target | log2 fold change |
| --- | --- |
| TCHP (peptide sequence: LKEVEATK, peptide start residue: 229) (UniProt Q9BT92) | -1.13 |
| NMNAT3 (peptide sequence: FGLVCVGR, peptide start residue: 160) (UniProt Q96T66) | 0.324 |
| CYTH2 (peptide sequence: ISAPTQEEKDEWIK, peptide start residue: 356) (UniProt Q99418) | -0.122 |
| BARD1 (peptide sequence: ASVQTQPAIKK, peptide start residue: 161) (UniProt Q99728) | -0.374 |
| UniProt Q99590 (peptide sequence: VSVAVEASADSSKTDK, peptide start residue: 1360) | -0.987 |
| MPHOSPH9 (peptide sequence: EISGVEDWK, peptide start residue: 477) (UniProt Q99550) | -0.536 |
| NUP88 (peptide sequence: LRGPSGGGEEPALSQYQR, peptide start residue: 83) (UniProt Q99567) | -0.209 |
| PSMB7 (peptide sequence: CEKGTTAVLTEK, peptide start residue: 247) (UniProt Q99436) | -1.26 |
| TBCD (peptide sequence: GDVGTWVR, peptide start residue: 865) (UniProt Q9BTW9) | -0.421 |
| CDK5RAP1 (peptide sequence: LKDDVPEEVK, peptide start residue: 486) (UniProt Q96SZ6) | 0.438 |
| NCAPG (peptide sequence: TMDDKTVFHEEFIHYLK, peptide start residue: 37) (UniProt Q9BPX3) | -0.217 |
| UniProt Q9BRT3 (peptide sequence: EQYPGIEIESR, peptide start residue: 48) | -0.124 |
| CPLANE2 (peptide sequence: IAGEAPGVVR, peptide start residue: 161) (UniProt Q9BU20) | -0.236 |
| EYA3 (peptide sequence: KVTYVVIGDGRDEEIAAK, peptide start residue: 529) (UniProt Q99504) | 0.148 |
| C12orf57 (peptide sequence: DNACNDMGK, peptide start residue: 41) (UniProt Q99622) | 0.0975 |
| UniProt Q9BPX6 (peptide sequence: KTADLAPHPEEK, peptide start residue: 88) | -0.348 |
| CPNE1 (peptide sequence: VVTMEVEAR, peptide start residue: 139) (UniProt Q99829) | 0.24 |
| RBBP8 (peptide sequence: TEYGKDSNTDKHLEPLK, peptide start residue: 422) (UniProt Q99708) | 0.978 |
| OSBPL9 (peptide sequence: HTLQLQGLDSGFVPSVQDFDKK, peptide start residue: 101) (UniProt Q96SU4) | 0.298 |

Three entries from above, with bars between the fields:
Target | log2 fold change
NMNAT3 (peptide sequence: FGLVCVGR, peptide start residue: 160) (UniProt Q96T66) | 0.324
CYTH2 (peptide sequence: ISAPTQEEKDEWIK, peptide start residue: 356) (UniProt Q99418) | -0.122
BARD1 (peptide sequence: ASVQTQPAIKK, peptide start residue: 161) (UniProt Q99728) | -0.374

More records:

| Target | log2 fold change |
| --- | --- |
| FIZ1 (peptide sequence: LLLGPAGGGVPK, peptide start residue: 293) (UniProt Q96SL8) | -0.515 |
| BUD13 (peptide sequence: YLSGADAGVDRGSESGR, peptide start residue: 16) (UniProt Q9BRD0) | -0.187 |
| UniProt Q99879 (peptide sequence: AVTKYTSSK, peptide start residue: 119) | -0.0982 |
| DOHH (peptide sequence: VVRESCEVALDMYEHETGR, peptide start residue: 268) (UniProt Q9BU89) | 0.492 |
| ACBD6 (peptide sequence: VGNCNTPKPSFFDFEGK, peptide start residue: 77) (UniProt Q9BR61) | 0.378 |
| C7orf50 (peptide sequence: ELTVQKAEALMR, peptide start residue: 157) (UniProt Q9BRJ6) | -0.279 |
| PKP2 (peptide sequence: AHLTVGQAAAGGSGNLLTER, peptide start residue: 317) (UniProt Q99959) | -0.377 |
| RNF5 (peptide sequence: AAAEEEDGGPEGPNRER, peptide start residue: 2) (UniProt Q99942) | -0.421 |
| NUDT12 (peptide sequence: LLNYAGEVPR, peptide start residue: 209) (UniProt Q9BQG2) | 0.298 |
| UniProt Q9BSB4 (peptide sequence: RLIKDTLAL, peptide start residue: 210) | -0.946 |
| SECISBP2 (peptide sequence: HRNENTCPLPQEMK, peptide start residue: 127) (UniProt Q96T21) | 0.315 |
| MTG1 (peptide sequence: MDLADLTEQQK, peptide start residue: 85) (UniProt Q9BT17) | 0.511 |
| CCDC28B (peptide sequence: LQAFGKECSFEQLEHVR, peptide start residue: 107) (UniProt Q9BUN5) | 0.784 |
| MPHOSPH6 (peptide sequence: GLDSETKK, peptide start residue: 22) (UniProt Q99547) | -0.108 |
| MTA3 (peptide sequence: QYESLPATHIR, peptide start residue: 96) (UniProt Q9BTC8) | -0.169 |
| FUCA2 (peptide sequence: FDPTWESLDAR, peptide start residue: 34) (UniProt Q9BTY2) | -0.16 |
| MNT (peptide sequence: AGLGPPK, peptide start residue: 348) (UniProt Q99583) | -0.608 |
| TUBA1C (peptide sequence: AVCMLSNTTAVAEAWAR, peptide start residue: 374) (UniProt Q9BQE3) | -0.056 |

Source: the supplement of paper PMC12819154, “High-throughput peptide-centric local stability assay extends protein–ligand identification to membrane proteins, tissues and bacteria” (Nature Structural & Molecular Biology, 2025)
